In doi:10.1101/2020.08.27.269514:
Where two headings read alike, the source gives them in different places. These are yes or no findings as the source states them, for the method shown. In cells and extracts the contact can be indirect. Some results given as binding are weak or reduced against the parent protein; the word gives no strength. Blank lines part the entries; values can stand above or below the molecule they belong to.

Protein sequences, listed by entry. Tags and fused reporters are not part of them.
UniProt Q62315: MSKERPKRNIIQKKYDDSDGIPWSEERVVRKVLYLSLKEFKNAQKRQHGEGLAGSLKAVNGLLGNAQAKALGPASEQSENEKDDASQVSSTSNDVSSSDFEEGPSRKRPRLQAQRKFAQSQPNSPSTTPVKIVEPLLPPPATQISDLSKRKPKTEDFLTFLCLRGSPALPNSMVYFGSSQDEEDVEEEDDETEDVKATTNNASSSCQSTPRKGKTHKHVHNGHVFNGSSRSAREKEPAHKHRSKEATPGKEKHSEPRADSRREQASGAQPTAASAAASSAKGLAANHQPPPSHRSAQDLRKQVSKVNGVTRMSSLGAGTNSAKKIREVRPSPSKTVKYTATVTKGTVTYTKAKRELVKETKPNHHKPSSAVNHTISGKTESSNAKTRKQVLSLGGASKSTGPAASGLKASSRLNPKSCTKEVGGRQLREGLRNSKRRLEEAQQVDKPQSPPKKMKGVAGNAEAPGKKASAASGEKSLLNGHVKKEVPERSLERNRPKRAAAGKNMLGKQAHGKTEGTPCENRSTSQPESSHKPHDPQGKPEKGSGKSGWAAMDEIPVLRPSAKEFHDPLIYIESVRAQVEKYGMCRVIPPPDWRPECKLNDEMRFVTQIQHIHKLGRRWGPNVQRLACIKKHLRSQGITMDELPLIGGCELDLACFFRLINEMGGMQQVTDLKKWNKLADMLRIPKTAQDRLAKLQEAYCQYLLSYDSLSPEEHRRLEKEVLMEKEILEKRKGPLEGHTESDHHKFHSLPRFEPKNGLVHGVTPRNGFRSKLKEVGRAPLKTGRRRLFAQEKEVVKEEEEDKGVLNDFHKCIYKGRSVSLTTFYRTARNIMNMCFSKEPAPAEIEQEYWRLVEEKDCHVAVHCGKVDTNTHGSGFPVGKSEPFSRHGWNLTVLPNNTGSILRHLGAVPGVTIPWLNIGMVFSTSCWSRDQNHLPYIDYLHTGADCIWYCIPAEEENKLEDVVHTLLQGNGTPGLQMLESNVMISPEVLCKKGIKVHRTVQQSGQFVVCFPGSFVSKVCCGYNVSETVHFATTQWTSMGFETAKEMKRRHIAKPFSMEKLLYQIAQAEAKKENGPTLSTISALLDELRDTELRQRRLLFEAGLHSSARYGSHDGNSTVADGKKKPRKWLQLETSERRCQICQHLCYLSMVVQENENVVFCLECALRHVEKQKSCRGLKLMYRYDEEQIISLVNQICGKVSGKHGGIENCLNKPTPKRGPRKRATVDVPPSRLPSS
UniProt O70546: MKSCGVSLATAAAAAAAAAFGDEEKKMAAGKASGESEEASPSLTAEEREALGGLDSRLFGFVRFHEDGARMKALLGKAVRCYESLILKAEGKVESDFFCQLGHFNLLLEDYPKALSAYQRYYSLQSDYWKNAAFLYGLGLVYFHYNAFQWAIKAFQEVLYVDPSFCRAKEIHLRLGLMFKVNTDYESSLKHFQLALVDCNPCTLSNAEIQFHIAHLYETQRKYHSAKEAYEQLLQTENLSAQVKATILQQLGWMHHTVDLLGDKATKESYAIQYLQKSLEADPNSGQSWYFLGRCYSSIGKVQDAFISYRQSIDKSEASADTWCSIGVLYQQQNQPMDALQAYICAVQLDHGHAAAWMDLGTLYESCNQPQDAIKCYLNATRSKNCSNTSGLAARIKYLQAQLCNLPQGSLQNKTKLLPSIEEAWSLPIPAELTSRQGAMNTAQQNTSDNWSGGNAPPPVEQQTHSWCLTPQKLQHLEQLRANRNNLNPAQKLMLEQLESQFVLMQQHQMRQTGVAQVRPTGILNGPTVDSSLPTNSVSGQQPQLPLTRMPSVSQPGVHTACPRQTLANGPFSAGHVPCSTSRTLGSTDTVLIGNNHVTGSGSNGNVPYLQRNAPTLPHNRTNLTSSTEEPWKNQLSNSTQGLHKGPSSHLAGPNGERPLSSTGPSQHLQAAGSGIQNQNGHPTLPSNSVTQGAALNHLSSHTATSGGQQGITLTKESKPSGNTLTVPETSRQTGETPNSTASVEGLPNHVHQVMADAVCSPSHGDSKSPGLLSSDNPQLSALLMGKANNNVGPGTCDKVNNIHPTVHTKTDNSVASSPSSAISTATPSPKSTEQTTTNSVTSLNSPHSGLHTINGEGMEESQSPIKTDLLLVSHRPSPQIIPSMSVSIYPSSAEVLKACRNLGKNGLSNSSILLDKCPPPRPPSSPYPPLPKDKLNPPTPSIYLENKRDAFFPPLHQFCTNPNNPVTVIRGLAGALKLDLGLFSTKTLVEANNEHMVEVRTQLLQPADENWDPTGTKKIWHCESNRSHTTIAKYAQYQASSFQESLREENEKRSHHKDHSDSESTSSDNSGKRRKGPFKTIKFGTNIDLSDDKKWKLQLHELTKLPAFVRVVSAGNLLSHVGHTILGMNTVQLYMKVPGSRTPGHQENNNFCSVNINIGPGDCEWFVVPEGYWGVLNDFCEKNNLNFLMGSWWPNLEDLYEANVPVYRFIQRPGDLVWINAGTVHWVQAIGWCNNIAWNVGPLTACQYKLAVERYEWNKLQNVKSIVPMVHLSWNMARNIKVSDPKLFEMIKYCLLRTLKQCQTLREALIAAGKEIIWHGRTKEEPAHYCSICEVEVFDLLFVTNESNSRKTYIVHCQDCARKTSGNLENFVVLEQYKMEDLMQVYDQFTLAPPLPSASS
UniProt Q80Y84: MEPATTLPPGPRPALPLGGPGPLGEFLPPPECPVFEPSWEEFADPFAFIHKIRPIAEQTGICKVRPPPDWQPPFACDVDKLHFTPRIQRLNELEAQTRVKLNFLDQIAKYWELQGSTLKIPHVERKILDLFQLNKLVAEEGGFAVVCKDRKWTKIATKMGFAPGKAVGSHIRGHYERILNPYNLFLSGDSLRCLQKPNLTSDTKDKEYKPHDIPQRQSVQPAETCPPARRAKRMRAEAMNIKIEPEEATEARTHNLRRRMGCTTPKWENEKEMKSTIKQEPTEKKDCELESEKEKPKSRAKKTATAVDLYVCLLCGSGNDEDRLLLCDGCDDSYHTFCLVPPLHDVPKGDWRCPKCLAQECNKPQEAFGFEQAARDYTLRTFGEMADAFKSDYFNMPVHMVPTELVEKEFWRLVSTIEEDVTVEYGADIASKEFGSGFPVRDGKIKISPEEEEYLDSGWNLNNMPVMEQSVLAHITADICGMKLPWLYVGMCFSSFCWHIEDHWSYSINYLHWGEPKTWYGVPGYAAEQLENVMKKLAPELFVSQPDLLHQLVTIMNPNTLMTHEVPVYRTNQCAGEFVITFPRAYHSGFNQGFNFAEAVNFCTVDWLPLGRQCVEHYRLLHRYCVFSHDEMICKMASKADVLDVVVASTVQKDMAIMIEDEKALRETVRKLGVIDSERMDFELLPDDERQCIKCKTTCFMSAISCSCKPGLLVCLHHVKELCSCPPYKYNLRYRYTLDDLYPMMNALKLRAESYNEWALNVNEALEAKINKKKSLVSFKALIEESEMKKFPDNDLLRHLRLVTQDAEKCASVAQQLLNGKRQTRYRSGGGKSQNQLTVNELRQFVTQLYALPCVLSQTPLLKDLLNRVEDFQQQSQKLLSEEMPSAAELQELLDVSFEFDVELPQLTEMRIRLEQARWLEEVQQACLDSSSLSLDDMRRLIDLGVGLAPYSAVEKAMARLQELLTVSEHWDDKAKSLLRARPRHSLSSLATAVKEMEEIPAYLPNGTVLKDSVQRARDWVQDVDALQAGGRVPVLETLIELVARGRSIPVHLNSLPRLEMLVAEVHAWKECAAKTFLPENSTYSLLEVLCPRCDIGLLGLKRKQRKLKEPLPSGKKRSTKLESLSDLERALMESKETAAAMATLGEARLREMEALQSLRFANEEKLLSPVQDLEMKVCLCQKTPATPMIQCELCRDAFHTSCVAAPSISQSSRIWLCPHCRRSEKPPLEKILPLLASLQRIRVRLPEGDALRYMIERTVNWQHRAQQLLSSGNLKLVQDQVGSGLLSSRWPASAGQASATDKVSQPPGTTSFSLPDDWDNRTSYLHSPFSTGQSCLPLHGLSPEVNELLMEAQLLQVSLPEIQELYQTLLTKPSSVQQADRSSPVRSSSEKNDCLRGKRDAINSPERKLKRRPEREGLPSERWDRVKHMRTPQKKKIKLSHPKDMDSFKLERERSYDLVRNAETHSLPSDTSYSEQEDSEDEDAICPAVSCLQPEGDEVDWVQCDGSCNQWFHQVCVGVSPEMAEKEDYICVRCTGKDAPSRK
UniProt Q9CQJ4: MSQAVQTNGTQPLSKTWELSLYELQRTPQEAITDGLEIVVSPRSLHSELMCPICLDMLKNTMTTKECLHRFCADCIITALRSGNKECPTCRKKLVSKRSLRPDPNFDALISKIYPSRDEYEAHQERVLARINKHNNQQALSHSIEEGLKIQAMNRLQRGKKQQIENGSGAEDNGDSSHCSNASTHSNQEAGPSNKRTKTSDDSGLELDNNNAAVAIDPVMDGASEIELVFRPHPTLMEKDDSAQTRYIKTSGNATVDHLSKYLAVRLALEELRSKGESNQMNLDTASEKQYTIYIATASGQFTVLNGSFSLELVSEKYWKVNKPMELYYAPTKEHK
UniProt Q80U70: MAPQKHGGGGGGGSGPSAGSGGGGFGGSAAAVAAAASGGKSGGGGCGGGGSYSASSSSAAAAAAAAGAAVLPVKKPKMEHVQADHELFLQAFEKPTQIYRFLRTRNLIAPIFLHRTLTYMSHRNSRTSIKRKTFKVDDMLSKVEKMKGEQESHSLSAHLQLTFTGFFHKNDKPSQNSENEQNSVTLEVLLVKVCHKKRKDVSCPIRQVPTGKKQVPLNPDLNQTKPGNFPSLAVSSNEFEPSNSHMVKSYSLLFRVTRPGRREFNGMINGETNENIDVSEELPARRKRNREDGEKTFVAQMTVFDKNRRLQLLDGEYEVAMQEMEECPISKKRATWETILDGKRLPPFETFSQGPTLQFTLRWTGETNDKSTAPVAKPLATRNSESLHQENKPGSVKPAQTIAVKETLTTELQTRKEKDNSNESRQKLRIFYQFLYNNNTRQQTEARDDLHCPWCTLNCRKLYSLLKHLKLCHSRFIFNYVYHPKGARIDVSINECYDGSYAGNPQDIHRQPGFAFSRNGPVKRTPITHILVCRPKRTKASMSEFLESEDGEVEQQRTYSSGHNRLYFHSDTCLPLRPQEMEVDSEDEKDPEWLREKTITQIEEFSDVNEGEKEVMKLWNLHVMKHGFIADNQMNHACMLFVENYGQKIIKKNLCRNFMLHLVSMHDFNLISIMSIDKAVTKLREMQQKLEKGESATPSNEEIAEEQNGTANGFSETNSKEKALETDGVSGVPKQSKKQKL
UniProt Q9Z0Z7: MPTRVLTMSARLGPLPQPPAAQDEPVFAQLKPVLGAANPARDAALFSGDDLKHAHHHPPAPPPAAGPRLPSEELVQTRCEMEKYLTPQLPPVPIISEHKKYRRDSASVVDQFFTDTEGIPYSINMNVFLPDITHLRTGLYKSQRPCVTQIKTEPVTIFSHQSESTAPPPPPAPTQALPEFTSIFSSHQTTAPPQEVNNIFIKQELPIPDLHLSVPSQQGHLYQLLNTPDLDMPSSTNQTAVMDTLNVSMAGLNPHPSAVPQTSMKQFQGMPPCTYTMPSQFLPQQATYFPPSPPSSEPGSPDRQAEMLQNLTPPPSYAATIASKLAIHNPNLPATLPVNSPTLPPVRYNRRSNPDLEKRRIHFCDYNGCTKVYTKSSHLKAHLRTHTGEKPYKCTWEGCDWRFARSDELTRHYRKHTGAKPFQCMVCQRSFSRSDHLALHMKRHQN
UniProt P48432: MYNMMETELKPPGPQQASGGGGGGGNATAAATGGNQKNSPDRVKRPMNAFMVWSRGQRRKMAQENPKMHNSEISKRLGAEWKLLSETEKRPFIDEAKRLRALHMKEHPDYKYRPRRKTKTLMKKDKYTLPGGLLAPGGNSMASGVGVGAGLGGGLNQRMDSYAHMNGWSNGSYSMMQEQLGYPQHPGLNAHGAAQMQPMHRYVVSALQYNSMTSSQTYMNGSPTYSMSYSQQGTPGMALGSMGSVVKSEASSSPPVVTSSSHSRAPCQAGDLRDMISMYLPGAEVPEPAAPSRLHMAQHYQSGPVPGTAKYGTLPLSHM

Tests used:
Test in all cases: co-IP
[1] = target: JARID2-FLAG-Biotin(FB) (UniProt Q62315)
[2] = target: KDM6A-FLAG-Biotin(FB) (UniProt O70546)
[3] = target: JARID2-FLAG-Biotin(FB) (UniProt Q62315); remark: listed apart in the source
[4] = target: KDM6A-FLAG-Biotin(FB) (UniProt O70546); remark: listed apart in the source

Molecule: KDM5B (from UniProt Q80Y84 1-1544)
- binding [1]: binds

Molecule: RING1B (from UniProt Q9CQJ4 1-336)
- binding [1]: binds

Molecule: SUZ12 (from UniProt Q80U70 1-741)
- binding [1]: binds

B1: KDM4A (protein, UniProt Q8BW72 1-1064)
chain: MASESETLNPSARIMTFYPTMEEFRNFSRYIAYIESQGAHRAGLAKVVPPKEWKPRTSYDDIDDLVIPAPIQQLVTGQSGLFTQYNIQKKAMTVREFRKIANSDKYCTPRYSEFEELERKYWKNLTFNPPIYGADVNGTLYEQHVDEWNIGRLKTILDLVEKESGITIEGVNTPYLYFGMWKTSFAWHTEDMDLYSINYLHFGEPKSWYSVPPEHGKRLERLAKGFFPGSAQSCEAFLRHKMTLISPLMLKKYGIPFDKVTQEAGEFMITFPYGYHAGFNHGFNCAESTNFATRRWIEYGKQAVLCSCRKDMVKISMDVFVRRFQPERYKLWKAGKDSMVIDHTLPTPEAAEFLKDSGGLTPRAGSEECPEEDVEAADQGEEGDVKRSLAKHRIGTKRHRVCLEIPQEVSQSELFPKEELSSGQYEMTECPATLAPVRPTHSSVRQVEDSLPFPDYSDPTEVKFEELKNVKLEEEDEEDEPEAAALDLSVNPASVGGRLVFSGSKKKSSSSLGSTSSQDSVSSDSETAESVSCQGQEKTGVLTVHSYARGDGKAATGEPSVKKKRSAPRSISEQELAEVADEYMLSLEENKKTKGRRQPLSKLPRHHPLVLQECGSDDETSEQLTPEEEAEETEAWAKPLSQLWQNRPPNFEAEKEFNEIMAQQAPHCAVCMIFQTYHQVEFGAFSQSCGDASEPAAQTQRTKPLIPEMCFTTTGCSTDINLSTPYLEEDGTSMLVSCKKCSVRVHASCYGVPPAKASEEWMCSRCSANALEEDCCLCSLRGGALQRANDDRWVHVSCAVAILEARFVNIAERSPVDVSKIPLPRFKLKCVFCKKRRKRNAGCCVQCSHGRCPTAFHVSCAQAAGVMMQPDDWPFVVFITCFRHKIPNLERAKGALLSITAGQKVISKHKNGRFYQCEVVRLTTETFYEVNFDDGSFSDNLYPEDIVSQDCLQLGPPAEGEVVQVRWTDGQVYGAKFVASHPIQMYQVEFEDGSQLVVKRDDVYTLDEELPKRVKSRLSVASDMRFNEIFTEKEVKQEKKRQRVINSRYREDYIEPALYRAIME
- binding [3]: binds

B2: KDM4B (protein, UniProt Q91VY5 1-1086)
chain: MGSEDHSAQNPSCKIMTFRPTMDEFRDFNRYVAYIESQGAHRAGLAKIIPPKEWKPRQTYDDIDDVVIPAPIQQVVTGQSGLFTQYNIQKKAMTVGEYRRLANSEKYCTPRHQDFDDLERKYWKNLTFVSPIYGADISGSLYDDDVAQWNIGNLRTILDMVERECGTIIEGVNTPYLYFGMWKTTFAWHTEDMDLYSINYLHFGEPKSWYAIPPEHGKRLERLAIGFFPGSSQGCDAFLRHKMTLISPIILKKYGIPFSRITQEAGEFMITFPYGYHAGFNHGFNCAESTNFATLRWIDYGKVATQCTCRKDMVKISMDVFVRILQPERYEQWKQGRDLTVLDHTRPTALSSPELSSWSASRTSIKAKLLRRQISVKESRPWRKAEEERRREPTRRPGPASHRRRSQPKKSKPEESRSPGEATAGVSTLDEARGCSRGEAMPEDEEEEELLPSQGHEAEGVEEDGRGKPRPTKARNKKKTPSPSSPPLLSAPPALFPTEEVLRPPPQPKSPGPAMGPMAAEGGPPPTPLNVVPPGAPVEEAEVRPRPIIPMLYVLPRTSSTDGDREHSAHAQLAPMELGPEEENQAQAGDSQGTTPFSKLKVEIKKSRRHPLGRPPTRSPLSVVKQEASSDEEAFLFSGEDDVTDPEALRSLLSLQWKNKAASFQAERKFNAAAALSEPYCAICTLFYPYSQSVQTERDSAVQPPSKSGQRTRPLIPEMCFTSSGENTEPLPANSYVGEDGTSPLISCAHCCLQVHASCYGVRPELAKEGWTCSRCAAHAWTAECCLCNLRGGALQRTTEHRWIHVICAIAVPEVRFLNVIERNPVDVSAIPEQRWKLKCIYCRKRMKRVSGACIQCSYEHCSTSFHVTCAHAAGVLMEPDDWPYVVSITCLKHRASGAGGQLLRTVSLGQIVITKNRNGLYYRCRVIGTTAQTFYEVNFDDGSYSDNLYPESITSRDCLRLGPPPEGELVELRWTDGNLYRARFISMATSLIYQVEFEDGSQLTVKRGDIFTLEEELPKRVRSRLSLSTGTPQEPSFSGDDVKAAKRPRVASVLATTTEDTGRSPEYLSFMESLLQAQGRPGAPF
- binding [4]: binds

More lines, now with the values ahead:

- binding [2]: binds
Molecule: KLF5 (from UniProt Q9Z0Z7 1-446)

- binding [2]: binds
Molecule: SOX2 (from UniProt P48432 1-319)
